Most values lie at the level of the controls, where differences are scatter.
Legend:
Assay in all cases: normalised response (% of control), CellTox Green; higher = less cell death (100 = DMSO, 0 = benzethonium chloride kill control)
Settings in all cases: incubation time: 72 h
BT-474 = test system: BT-474
Protocol: (§1)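 DSRT, 72 h incubation, CellTox Green / CellTiter-Glo readout. Signal is normalised to DMSO and benzethonium chloride controls. Value is the normalised response at the lowest tested concentration.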

BT-549 = test system: BT-549
Protocol: as §1

CAL-120 = test system: CAL-120
Protocol: as §1

CAL-51 = test system: CAL-51
Protocol: as §1

CAL-85-1 = test system: CAL-85-1
Protocol: as §1

DU-4475 = test system: DU-4475
Protocol: as §1

HCC1143 = test system: HCC1143
Protocol: as §1

HCC1599 = test system: HCC1599
Protocol: as §1

HCC1937 = test system: HCC1937
Protocol: as §1

HDQ-P1 = test system: HDQ-P1
Protocol: as §1

Hs578T = test system: Hs578T
Protocol: as §1

MCF-10A = test system: MCF-10A
Protocol: as §1

MDA-MB-231 = test system: MDA-MB-231
Protocol: as §1

MDA-MB-436 = test system: MDA-MB-436
Protocol: as §1

MDA-MB-453 = test system: MDA-MB-453
Protocol: as §1

MDA-MB-468 = test system: MDA-MB-468
Protocol: as §1

MFM-223 = test system: MFM-223
Protocol: as §1

CAL-148 = test system: CAL-148
Protocol: as §1

C[C@@]1(C(=O)Nc2ccc(F)nc2)CCCN1c1nc(Nc2cc(C3CC3)n[nH]2)c2cccn2n1 (1 nM)
normalised response (BT-474): 101% | normalised response (BT-549): 107% | normalised response (CAL-120): 99.5% | normalised response (CAL-51): 115% | normalised response (CAL-85-1): 93% | normalised response (DU-4475): 96.2% | normalised response (HCC1143): 86% | normalised response (HCC1599): 94.2% | normalised response (HCC1937): 70.2% | normalised response (HDQ-P1): 94.9% | normalised response (Hs578T): 84.5% | normalised response (MCF-10A): 94.4% | normalised response (MDA-MB-231): 88% | normalised response (MDA-MB-436): 84.6% | normalised response (MDA-MB-453): 106% | normalised response (MDA-MB-468): 101% | normalised response (MFM-223): 94.2%

C[C@]12CC[C@H](O)CC1=CC[C@@H]1[C@@H]2CC[C@]2(C)C(c3cccnc3)=CC[C@@H]12 [Abiraterone] (0.5 nM)
normalised response (BT-474): 104% | normalised response (BT-549): 106% | normalised response (CAL-120): 98.8% | normalised response (CAL-148): 105% | normalised response (CAL-51): 115% | normalised response (CAL-85-1): 106% | normalised response (DU-4475): 100% | normalised response (HCC1143): 73.5% | normalised response (HCC1599): 98.4% | normalised response (HCC1937): 87.2% | normalised response (HDQ-P1): 105% | normalised response (Hs578T): 109% | normalised response (MCF-10A): 103% | normalised response (MDA-MB-231): 102% | normalised response (MDA-MB-436): 81.6% | normalised response (MDA-MB-453): 117% | normalised response (MDA-MB-468): 127% | normalised response (MFM-223): 99.6%

COc1c(C)cnc(Cn2cnc3c(Cl)nc(N)nc32)c1C [BIIB021] (1 nM)
normalised response (BT-474): 94.9% | normalised response (BT-549): 101% | normalised response (CAL-120): 102% | normalised response (CAL-148): 103% | normalised response (CAL-51): 98.1% | normalised response (CAL-85-1): 103% | normalised response (DU-4475): 102% | normalised response (HCC1143): 99.7% | normalised response (HCC1599): 100% | normalised response (HCC1937): 114% | normalised response (HDQ-P1): 94.1% | normalised response (MCF-10A): 106% | normalised response (MDA-MB-231): 99.8% | normalised response (MDA-MB-436): 90.7% | normalised response (MDA-MB-453): 107% | normalised response (MDA-MB-468): 86.4% | normalised response (MFM-223): 103%

O=c1[nH]c(=O)n([C@H]2C[C@H](O)[C@@H](CO)O2)cc1F [Floxuridine] (1 nM)
normalised response (BT-474): 102% | normalised response (BT-549): 103% | normalised response (CAL-120): 100% | normalised response (CAL-148): 89.5% | normalised response (CAL-51): 117% | normalised response (CAL-85-1): 96.2% | normalised response (DU-4475): 111% | normalised response (HCC1143): 58.8% | normalised response (HCC1599): 114% | normalised response (HCC1937): 113% | normalised response (HDQ-P1): 109% | normalised response (Hs578T): 111% | normalised response (MCF-10A): 109% | normalised response (MDA-MB-231): 117% | normalised response (MDA-MB-436): 83.6% | normalised response (MDA-MB-453): 110% | normalised response (MDA-MB-468): 100% | normalised response (MFM-223): 104%

CC1(C)NC(=O)N(c2ccc([N+](=O)[O-])c(C(F)(F)F)c2)C1=O [Nilutamide] (1 nM)
normalised response (BT-474): 102% | normalised response (BT-549): 90% | normalised response (CAL-120): 103% | normalised response (CAL-148): 106% | normalised response (CAL-51): 115% | normalised response (CAL-85-1): 98.4% | normalised response (DU-4475): 103% | normalised response (HCC1143): 121% | normalised response (HCC1599): 103% | normalised response (HCC1937): 64.1% | normalised response (HDQ-P1): 88.6% | normalised response (Hs578T): 74% | normalised response (MCF-10A): 89.8% | normalised response (MDA-MB-231): 86.2% | normalised response (MDA-MB-436): 76.8% | normalised response (MDA-MB-453): 110% | normalised response (MDA-MB-468): 103% | normalised response (MFM-223): 104%

C=CCc1cccc(/C=N/NC(=O)CN2CCN(Cc3ccccc3)CC2)c1O [PAC-1] (1 nM)
normalised response (BT-474): 98.9% | normalised response (BT-549): 104% | normalised response (CAL-120): 100% | normalised response (CAL-148): 104% | normalised response (CAL-51): 125% | normalised response (CAL-85-1): 94.5% | normalised response (DU-4475): 107% | normalised response (HCC1143): 117% | normalised response (HCC1599): 107% | normalised response (HCC1937): 97.7% | normalised response (HDQ-P1): 106% | normalised response (Hs578T): 110% | normalised response (MCF-10A): 92.9% | normalised response (MDA-MB-231): 103% | normalised response (MDA-MB-436): 80.7% | normalised response (MDA-MB-453): 62.7% | normalised response (MDA-MB-468): 101% | normalised response (MFM-223): 104%

N#CC[C@H](C1CCCC1)n1cc(-c2ncnc3[nH]ccc23)cn1 [Ruxolitinib] (1 nM)
normalised response (BT-474): 96.5% | normalised response (BT-549): 98.3% | normalised response (CAL-120): 93.4% | normalised response (CAL-148): 94% | normalised response (CAL-51): 114% | normalised response (CAL-85-1): 103% | normalised response (DU-4475): 95.5% | normalised response (HCC1143): 90% | normalised response (HCC1599): 87.5% | normalised response (HCC1937): 82.7% | normalised response (HDQ-P1): 91.1% | normalised response (Hs578T): 65.5% | normalised response (MCF-10A): 94.2% | normalised response (MDA-MB-231): 93.9% | normalised response (MDA-MB-436): 89.2% | normalised response (MDA-MB-453): 93.4% | normalised response (MDA-MB-468): 60% | normalised response (MFM-223): 95.3%

C[C@@H]1CCN(C(=O)CC#N)C[C@@H]1N(C)c1ncnc2[nH]ccc12 [Tofacitinib] (0.5 nM)
normalised response (BT-474): 106% | normalised response (BT-549): 99.6% | normalised response (CAL-120): 98.6% | normalised response (CAL-148): 107% | normalised response (CAL-51): 104% | normalised response (CAL-85-1): 96.4% | normalised response (DU-4475): 103% | normalised response (HCC1143): 87.7% | normalised response (HCC1599): 106% | normalised response (HCC1937): 91.5% | normalised response (HDQ-P1): 89.9% | normalised response (Hs578T): 85.1% | normalised response (MCF-10A): 92.1% | normalised response (MDA-MB-231): 104% | normalised response (MDA-MB-436): 96.4% | normalised response (MDA-MB-453): 114% | normalised response (MDA-MB-468): 77.5% | normalised response (MFM-223): 66.5%

Oc1nc(-c2ccc(C(F)(F)F)cc2)nc2c1CSCC2 [XAV-939] (1 nM)
normalised response (BT-474): 99.1% | normalised response (BT-549): 97.8% | normalised response (CAL-120): 104% | normalised response (CAL-148): 85.7% | normalised response (CAL-51): 97.5% | normalised response (CAL-85-1): 110% | normalised response (DU-4475): 100% | normalised response (HCC1143): 97.7% | normalised response (HCC1599): 93.9% | normalised response (HCC1937): 93.5% | normalised response (HDQ-P1): 97.5% | normalised response (Hs578T): 73.5% | normalised response (MCF-10A): 104% | normalised response (MDA-MB-231): 101% | normalised response (MDA-MB-436): 86.5% | normalised response (MDA-MB-453): 101% | normalised response (MDA-MB-468): 113% | normalised response (MFM-223): 100%
